This is one part of the list.
Key:
Assay in all cases: log2 fold change, soluble protein after heating vs DMSO (PISA); higher = thermal stabilisation; K562 cells, 10 uM, 30 min; active = over 0.2 and 3.5 SD of the protein, either way, in both replicates (recomputed)
[1] = compound: CC1=C(C=C(C=C1)NC(=O)C2=CC(=CC=C2)C(C)(C)C#N)NC3=CC4=C(C=C3)N=CN(C4=O)C
Method in brief: (§1)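 Soluble protein was quantified by TMTpro 16plex LC-MS/MS after channel sums were equalised. It was obtained as the supernatant after 21,000xg for 90 min from pooled aliquots of K562 cells (2×10^6 cells/mL, 10 μM compound, 30 min) heated for 3 min across 48°C-58°C and extracted in PBS with 0.5% NP-40 at 4°C. Thermal stability values are relative to control samples and come from duplicates. They are given as log2 fold changes.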

Protein sequences, listed by entry. Tags and fused reporters are not part of them. Lines headed by an entry give the natural chain unless they say otherwise; changes in a name come on top.
UniProt P78330: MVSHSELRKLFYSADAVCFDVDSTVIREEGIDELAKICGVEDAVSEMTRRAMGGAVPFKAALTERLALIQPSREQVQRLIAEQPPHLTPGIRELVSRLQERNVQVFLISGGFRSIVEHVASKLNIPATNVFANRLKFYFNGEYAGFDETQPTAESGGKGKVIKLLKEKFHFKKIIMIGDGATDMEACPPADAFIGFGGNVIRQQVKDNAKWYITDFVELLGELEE
UniProt Q9ULZ3, whole entry, looked up: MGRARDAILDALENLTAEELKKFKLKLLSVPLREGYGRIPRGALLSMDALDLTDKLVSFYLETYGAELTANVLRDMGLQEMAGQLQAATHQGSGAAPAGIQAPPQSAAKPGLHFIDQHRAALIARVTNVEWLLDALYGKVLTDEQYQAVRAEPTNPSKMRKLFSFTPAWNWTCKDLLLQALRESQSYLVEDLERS
UniProt P61289: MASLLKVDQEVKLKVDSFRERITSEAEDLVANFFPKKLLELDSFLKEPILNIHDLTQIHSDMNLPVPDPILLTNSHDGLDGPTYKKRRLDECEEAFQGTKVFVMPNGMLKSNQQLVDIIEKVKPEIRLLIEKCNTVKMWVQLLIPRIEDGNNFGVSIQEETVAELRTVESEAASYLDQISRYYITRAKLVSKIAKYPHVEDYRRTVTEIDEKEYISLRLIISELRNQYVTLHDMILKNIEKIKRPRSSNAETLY
UniProt Q9BRP8: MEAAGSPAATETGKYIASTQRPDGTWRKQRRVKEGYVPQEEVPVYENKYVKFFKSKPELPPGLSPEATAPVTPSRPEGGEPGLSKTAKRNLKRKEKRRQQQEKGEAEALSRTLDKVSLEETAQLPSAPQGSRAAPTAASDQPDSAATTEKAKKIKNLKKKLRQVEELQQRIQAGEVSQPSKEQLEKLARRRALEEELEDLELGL
UniProt P49721: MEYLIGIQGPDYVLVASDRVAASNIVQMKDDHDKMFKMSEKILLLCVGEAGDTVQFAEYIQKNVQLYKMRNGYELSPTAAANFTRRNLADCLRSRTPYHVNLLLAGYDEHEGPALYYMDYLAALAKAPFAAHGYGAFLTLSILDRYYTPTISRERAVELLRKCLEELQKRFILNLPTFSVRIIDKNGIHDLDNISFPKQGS
UniProt O95456: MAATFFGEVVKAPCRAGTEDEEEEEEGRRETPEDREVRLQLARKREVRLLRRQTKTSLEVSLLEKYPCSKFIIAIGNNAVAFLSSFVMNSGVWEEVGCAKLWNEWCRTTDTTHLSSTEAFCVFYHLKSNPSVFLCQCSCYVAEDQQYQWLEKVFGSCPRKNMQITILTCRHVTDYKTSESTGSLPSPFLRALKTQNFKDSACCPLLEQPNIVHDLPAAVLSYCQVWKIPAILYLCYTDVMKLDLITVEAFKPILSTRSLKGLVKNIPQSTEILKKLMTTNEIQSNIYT
UniProt Q86TP1: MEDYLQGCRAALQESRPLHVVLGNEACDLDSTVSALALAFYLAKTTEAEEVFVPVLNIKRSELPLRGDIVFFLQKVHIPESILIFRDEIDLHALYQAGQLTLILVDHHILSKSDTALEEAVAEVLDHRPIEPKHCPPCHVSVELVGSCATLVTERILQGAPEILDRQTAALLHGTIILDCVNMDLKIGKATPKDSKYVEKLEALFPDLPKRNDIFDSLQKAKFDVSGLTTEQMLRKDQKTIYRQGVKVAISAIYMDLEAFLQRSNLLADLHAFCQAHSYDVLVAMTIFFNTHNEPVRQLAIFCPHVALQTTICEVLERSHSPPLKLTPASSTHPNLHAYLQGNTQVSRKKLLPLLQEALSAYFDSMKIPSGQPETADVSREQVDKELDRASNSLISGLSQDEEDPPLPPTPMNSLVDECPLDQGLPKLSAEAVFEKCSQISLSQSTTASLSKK
UniProt Q15008: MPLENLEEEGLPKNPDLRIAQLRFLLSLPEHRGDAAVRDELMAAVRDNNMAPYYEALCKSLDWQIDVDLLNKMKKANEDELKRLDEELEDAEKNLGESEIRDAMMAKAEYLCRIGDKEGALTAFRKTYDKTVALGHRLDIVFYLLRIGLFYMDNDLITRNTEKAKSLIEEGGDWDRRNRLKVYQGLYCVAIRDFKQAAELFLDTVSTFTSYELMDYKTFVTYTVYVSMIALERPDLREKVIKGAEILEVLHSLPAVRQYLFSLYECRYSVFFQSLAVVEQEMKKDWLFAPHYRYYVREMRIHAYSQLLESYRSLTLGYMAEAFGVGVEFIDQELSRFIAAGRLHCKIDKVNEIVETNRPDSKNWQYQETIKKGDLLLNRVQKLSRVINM
UniProt Q9H0R6: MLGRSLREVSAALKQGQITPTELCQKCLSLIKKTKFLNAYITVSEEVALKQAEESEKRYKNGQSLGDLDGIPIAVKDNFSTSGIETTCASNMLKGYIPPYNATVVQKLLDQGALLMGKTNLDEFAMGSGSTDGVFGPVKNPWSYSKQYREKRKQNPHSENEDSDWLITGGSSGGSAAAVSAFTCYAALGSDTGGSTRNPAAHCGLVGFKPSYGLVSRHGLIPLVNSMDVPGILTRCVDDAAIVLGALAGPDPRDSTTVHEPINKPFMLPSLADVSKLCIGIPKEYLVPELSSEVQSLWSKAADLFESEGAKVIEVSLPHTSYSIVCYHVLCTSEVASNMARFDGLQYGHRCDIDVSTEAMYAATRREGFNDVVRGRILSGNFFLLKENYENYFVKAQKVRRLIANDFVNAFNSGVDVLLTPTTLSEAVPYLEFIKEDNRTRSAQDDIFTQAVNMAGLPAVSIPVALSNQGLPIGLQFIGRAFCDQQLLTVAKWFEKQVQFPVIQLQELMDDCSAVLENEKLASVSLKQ
UniProt P48556: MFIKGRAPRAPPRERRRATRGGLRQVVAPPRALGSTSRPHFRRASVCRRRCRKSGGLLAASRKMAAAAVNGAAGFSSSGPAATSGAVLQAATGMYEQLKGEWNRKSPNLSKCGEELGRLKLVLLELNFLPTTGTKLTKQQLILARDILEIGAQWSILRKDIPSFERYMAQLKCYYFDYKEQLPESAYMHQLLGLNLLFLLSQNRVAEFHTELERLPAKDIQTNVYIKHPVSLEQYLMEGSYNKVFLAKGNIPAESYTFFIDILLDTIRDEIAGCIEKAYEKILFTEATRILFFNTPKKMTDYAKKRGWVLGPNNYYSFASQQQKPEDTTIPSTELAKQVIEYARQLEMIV
UniProt P43686, whole entry, looked up: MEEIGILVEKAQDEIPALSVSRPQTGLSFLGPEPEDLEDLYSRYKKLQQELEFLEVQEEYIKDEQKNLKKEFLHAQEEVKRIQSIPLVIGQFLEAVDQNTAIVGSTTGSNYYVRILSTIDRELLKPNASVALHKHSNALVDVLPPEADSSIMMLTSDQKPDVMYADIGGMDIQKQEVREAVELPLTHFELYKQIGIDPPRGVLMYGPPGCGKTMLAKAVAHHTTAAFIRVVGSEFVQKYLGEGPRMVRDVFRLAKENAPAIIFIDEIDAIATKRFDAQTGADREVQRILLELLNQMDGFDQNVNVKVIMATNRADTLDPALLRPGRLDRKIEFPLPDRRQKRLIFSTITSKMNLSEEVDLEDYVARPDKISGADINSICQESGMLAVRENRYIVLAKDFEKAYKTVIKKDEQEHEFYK
UniProt P62195, whole entry, looked up: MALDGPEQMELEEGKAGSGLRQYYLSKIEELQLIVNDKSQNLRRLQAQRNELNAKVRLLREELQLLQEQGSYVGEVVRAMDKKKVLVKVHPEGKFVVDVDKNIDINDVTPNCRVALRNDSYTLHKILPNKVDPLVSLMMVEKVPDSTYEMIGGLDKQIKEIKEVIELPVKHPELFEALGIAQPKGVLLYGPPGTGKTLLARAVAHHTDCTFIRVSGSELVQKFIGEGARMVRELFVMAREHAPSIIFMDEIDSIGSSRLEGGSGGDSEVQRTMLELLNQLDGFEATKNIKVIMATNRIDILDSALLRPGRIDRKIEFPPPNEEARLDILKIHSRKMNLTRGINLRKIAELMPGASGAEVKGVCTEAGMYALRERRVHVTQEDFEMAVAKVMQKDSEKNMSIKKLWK
UniProt P17980, whole entry, looked up: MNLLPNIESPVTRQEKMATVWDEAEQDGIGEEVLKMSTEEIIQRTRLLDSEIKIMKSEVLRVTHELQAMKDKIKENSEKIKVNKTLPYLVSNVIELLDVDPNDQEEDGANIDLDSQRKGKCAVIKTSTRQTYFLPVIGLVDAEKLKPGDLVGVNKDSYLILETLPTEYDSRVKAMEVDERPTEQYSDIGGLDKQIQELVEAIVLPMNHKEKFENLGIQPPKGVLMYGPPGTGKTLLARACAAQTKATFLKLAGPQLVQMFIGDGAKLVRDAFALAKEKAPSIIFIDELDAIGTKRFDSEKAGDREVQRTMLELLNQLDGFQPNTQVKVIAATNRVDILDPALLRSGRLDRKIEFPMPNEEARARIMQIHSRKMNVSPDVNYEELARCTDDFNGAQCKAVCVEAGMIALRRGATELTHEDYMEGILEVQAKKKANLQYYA
UniProt P51665: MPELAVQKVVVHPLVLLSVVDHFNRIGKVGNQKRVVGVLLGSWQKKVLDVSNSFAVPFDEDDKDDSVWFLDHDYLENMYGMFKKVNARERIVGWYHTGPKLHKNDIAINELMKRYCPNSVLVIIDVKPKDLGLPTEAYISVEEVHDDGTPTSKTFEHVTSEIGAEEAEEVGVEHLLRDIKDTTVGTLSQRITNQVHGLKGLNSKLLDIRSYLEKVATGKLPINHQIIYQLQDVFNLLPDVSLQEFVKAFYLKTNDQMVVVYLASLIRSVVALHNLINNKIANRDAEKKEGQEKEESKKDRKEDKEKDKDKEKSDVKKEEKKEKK
UniProt P62333, whole entry, looked up: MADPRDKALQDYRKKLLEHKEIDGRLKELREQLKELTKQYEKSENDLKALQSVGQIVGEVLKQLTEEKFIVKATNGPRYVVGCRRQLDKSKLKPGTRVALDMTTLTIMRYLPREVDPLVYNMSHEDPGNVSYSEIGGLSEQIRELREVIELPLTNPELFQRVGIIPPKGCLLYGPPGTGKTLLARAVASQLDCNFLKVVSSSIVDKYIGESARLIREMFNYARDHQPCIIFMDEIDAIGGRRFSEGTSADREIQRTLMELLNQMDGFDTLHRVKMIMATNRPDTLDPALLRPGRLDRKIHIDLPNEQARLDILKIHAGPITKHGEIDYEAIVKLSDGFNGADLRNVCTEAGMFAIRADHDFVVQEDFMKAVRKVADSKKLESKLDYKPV
UniProt Q9Y3E5: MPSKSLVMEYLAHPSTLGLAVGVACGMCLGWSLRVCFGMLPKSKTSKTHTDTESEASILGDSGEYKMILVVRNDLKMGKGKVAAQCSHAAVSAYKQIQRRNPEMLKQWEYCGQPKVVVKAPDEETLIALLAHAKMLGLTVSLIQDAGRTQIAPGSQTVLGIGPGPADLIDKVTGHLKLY

[2] = compound: CC1=C(C=C(C=C1)NC(=O)C2=CC(=CC=C2)N(C)C)NC(=O)C3=CC=C(C=C3)O
Method in brief: as §1

[3] = compound: CC1=CC=C(C=C1)SC2=C3C=C(SC3=CN=C2)C(=O)N
Method in brief: as §1

[4] = compound: CC1=NC(=CC=C1)C2=C(N=C(N2)C(C)(C)C)C3=CC4=NC=CN=C4C=C3
Method in brief: as §1

Nexturastat A = compound: CCCCN(Cc1ccc(C(=O)NO)cc1)C(=O)Nc1ccccc1 [Nexturastat A]
Method in brief: as §1

vemurafenib = compound: CCCS(=O)(=O)Nc1ccc(F)c(C(=O)c2c[nH]c3ncc(-c4ccc(Cl)cc4)cc23)c1F [vemurafenib]
Method in brief: as §1

[5] = compound: CCCS(=O)(=O)Nc1ccc(F)c(C(=O)c2c[nH]c3ncc(Cl)cc23)c1F
Method in brief: as §1

[6] = compound: CCCc1cc(C)[nH]c(=O)c1CNC(=O)c1cc(-c2ccnc(N3CCN(C)CC3)c2)cc2c1cnn2C(C)C
Method in brief: as §1

givinostat = compound: CCN(CC)Cc1ccc2cc(COC(=O)Nc3ccc(C(=O)NO)cc3)ccc2c1 [givinostat]
Method in brief: as §1

barasertib = compound: CCN(CCCOc1ccc2c(Nc3cc(CC(=O)Nc4cccc(F)c4)[nH]n3)ncnc2c1)CCOP(=O)(O)O [barasertib]
Method in brief: as §1

[7] = compound: CC[C@@H]1C(=O)N(C)c2cnc(Nc3ccc(C(=O)NC4CCN(C)CC4)cc3OC)nc2N1C1CCCC1
Method in brief: as §1

volasertib = compound: CC[C@@H]1C(=O)N(C)c2cnc(Nc3ccc(C(=O)N[C@H]4CC[C@H](N5CCN(CC6CC6)CC5)CC4)cc3OC)nc2N1C(C)C [volasertib]
Method in brief: as §1

[8] = compound: CC[C@H](C)N1C=C(C2=C(C=C(C=C21)C3=CN=C(C=C3)N4CCNCC4)C(=O)NCC5=C(C=C(NC5=O)C)C)C
Method in brief: as §1

epoxomicin = compound: CC[C@H](C)[C@@H](C(=O)N[C@@H]([C@@H](C)O)C(=O)N[C@@H](CC(C)C)C(=O)[C@]1(CO1)C)NC(=O)[C@H]([C@@H](C)CC)N(C)C(=O)C [epoxomicin]
Method in brief: as §1

[9] = compound: CCn1c(C(=O)N(C2CC2)C2CC2)cc2c3c(ncn3C)c(Nc3cc(C)n(C)n3)nc21
Method in brief: as §1

[10] = compound: CCn1cc(-c2ccnc3[nH]c(-c4cccc(CN(C)C)c4)cc23)c(-c2ccc(NC(=O)N(C)C)cc2)n1
Method in brief: as §1

[11] = compound: CN(C)CC(=O)Nc1ccc2[nH]c(=O)c3ccccc3c2c1
Method in brief: as §1

rosiglitazone = compound: CN(CCOC1=CC=C(C=C1)C[C@H]2C(=O)NC(=O)S2)C3=CC=CC=N3 (racemic) [rosiglitazone]
Method in brief: as §1

[12] = compound: CN1C2=C(C3=C1C(=O)N(N=C3)CC4=CC(=CC=C4)N)SC(=C2)S(=O)C
Method in brief: as §1

[13] = compound: CN1CCC(CNc2ccc3ncc(-c4cccc(OC(F)(F)F)c4)n3n2)CC1
Method in brief: as §1

Row | Target | log2 fold change [1] | log2 fold change [2] | log2 fold change [3] | log2 fold change [4] | log2 fold change (Nexturastat A) | log2 fold change (vemurafenib) | log2 fold change [5] | log2 fold change [6] | log2 fold change (givinostat) | log2 fold change (barasertib) | log2 fold change [7] | log2 fold change (volasertib) | log2 fold change [8] | log2 fold change (epoxomicin) | log2 fold change [9] | log2 fold change [10] | log2 fold change [11] | log2 fold change (rosiglitazone) | log2 fold change [12] | log2 fold change [13]
1 | PSPH (UniProt P78330) | inactive: -0.044 | inactive: -0.016 | inactive: 0.078 | inactive: 0.047 | inactive: -0.097 | inactive: -0.007 | inactive: 0.052 | inactive: -0.038 | inactive: -0.024 | inactive: -0.022 | inactive: 0.02 | inactive: 0.003 | inactive: -0.03 | inactive: -0.017 | inactive: -0.003 | inactive: -0.025 | inactive: 0.041 | inactive: 0.006 | inactive: -0.053 | inactive: -0.023
2 | PYCARD (UniProt Q9ULZ3) | inactive: -0.006 | inactive: 0.069 | inactive: 0.017 | inactive: 0.09 | inactive: -0.096 | inactive: 0.087 | inactive: 0.036 | inactive: -0.07 | inactive: -0.041 | inactive: 0.063 | inactive: -0.014 | inactive: -0.081 | inactive: -0.008 | inactive: 0.033 | inactive: -0.023 | inactive: 0.008 | inactive: -0.004 | inactive: 0.007 | inactive: -0.073 | inactive: -0.037
3 | PSME3 isoform 2 (UniProt P61289) | inactive: -0.008 | inactive: 0.028 | inactive: -0.012 | inactive: 0.013 | inactive: -0.035 | inactive: 0.037 | inactive: -0.025 | inactive: 0.007 | inactive: -0.019 | inactive: -0.021 | inactive: -0.009 | inactive: 0.067 | inactive: -0.014 | inactive: -0.118 | inactive: 0.036 | inactive: 0.012 | inactive: -0.009 | inactive: 0.024 | inactive: -0.039 | inactive: -0.006
4 | PYM1 (UniProt Q9BRP8) | inactive: -0.067 | inactive: 0 | inactive: -0.023 | inactive: -0.031 | inactive: 0.144 | inactive: -0.082 | inactive: -0.119 | inactive: 0.015 | inactive: -0.016 | inactive: -0.066 | inactive: 0.158 | inactive: 0.258 | inactive: -0.044 | inactive: -0.128 | inactive: -0.047 | inactive: 0.136 | inactive: -0.076 | inactive: -0.011 | inactive: 0.075 | inactive: 0.123
5 | PSMB2 (UniProt P49721) | inactive: 0.02 | inactive: -0.043 | inactive: 0.174 | inactive: 0.044 | inactive: 0.04 | inactive: -0.056 | inactive: -0.094 | inactive: -0.021 | inactive: -0.057 | inactive: -0.03 | inactive: 0.047 | inactive: 0.117 | inactive: -0.051 | inactive: -0.151 | inactive: 0.029 | inactive: 0.059 | inactive: -0.03 | inactive: -0.028 | inactive: 0.005 | inactive: 0.089
6 | PSMG1 (UniProt O95456) | inactive: 0.034 | inactive: 0.006 | inactive: 0.001 | inactive: 0.041 | inactive: -0.078 | inactive: -0.002 | inactive: -0.01 | inactive: -0.019 | inactive: -0.014 | inactive: 0.028 | inactive: 0.004 | inactive: 0.041 | inactive: -0.028 | inactive: 0.041 | inactive: 0.028 | inactive: -0.018 | inactive: -0.038 | inactive: -0.011 | inactive: -0.015 | inactive: -0.013
7 | PRUNE1 (UniProt Q86TP1) | inactive: 0.056 | inactive: -0.014 | inactive: -0.005 | inactive: -0.028 | inactive: 0.161 | inactive: 0.129 | inactive: 0.036 | inactive: 0.022 | inactive: 0.056 | inactive: 0.105 | inactive: -0.083 | active: -0.417 | inactive: 0.067 | inactive: 0.012 |  | inactive: -0.024 | inactive: -0.018 |  | inactive: -0.079 | inactive: -0.089
8 | PSMD6 (UniProt Q15008) | inactive: -0.007 | inactive: -0.004 | inactive: -0.045 | inactive: -0.045 | inactive: 0.108 | inactive: -0.055 | inactive: -0.014 | inactive: 0.01 | inactive: -0.034 | inactive: -0.012 | inactive: 0.09 | inactive: 0.18 | inactive: 0.01 | inactive: -0.247 |  | inactive: 0.063 | inactive: -0.023 |  | inactive: 0.029 | inactive: 0.061
9 | QRSL1 (UniProt Q9H0R6) | inactive: -0.001 | inactive: -0.079 | inactive: 0.018 | inactive: 0.041 | inactive: -0.09 | inactive: 0.086 | inactive: 0.061 | inactive: 0.093 | inactive: 0.033 | inactive: 0.044 | inactive: 0.044 | inactive: -0.167 | inactive: 0.069 | inactive: 0.027 |  | inactive: -0.029 | inactive: 0.023 |  | inactive: -0.053 | inactive: -0.095
10 | PSMD8 (UniProt P48556) | inactive: 0.044 | inactive: 0.047 | inactive: -0.056 | inactive: -0.045 | inactive: 0.128 | inactive: -0.082 | inactive: -0.073 | inactive: 0.022 | inactive: -0.04 | inactive: -0.034 | inactive: 0.054 | inactive: 0.25 | inactive: -0.01 | active: -0.286 |  | inactive: 0.039 | inactive: -0.037 |  | inactive: 0.035 | inactive: 0.016
11 | PSMC4 (UniProt P43686) | inactive: 0.016 | inactive: 0.013 | inactive: -0.049 | inactive: -0.036 | inactive: 0.03 | inactive: -0.066 | inactive: -0.083 | inactive: 0.084 | inactive: -0.059 | inactive: -0.042 | inactive: 0.033 | inactive: 0.2 | inactive: -0.021 | active: -0.379 |  | inactive: 0.086 | inactive: -0.033 |  | inactive: 0.033 | inactive: 0.06
12 | PSMC5 (UniProt P62195) | inactive: 0.014 | inactive: 0.011 | inactive: -0.029 | inactive: -0.05 | inactive: 0.003 | inactive: -0.048 | inactive: -0.053 | inactive: 0.032 | inactive: -0.082 | inactive: -0.034 | inactive: 0.043 | inactive: 0.178 | inactive: -0.002 | active: -0.308 |  | inactive: 0.039 | inactive: -0.029 |  | inactive: 0.015 | inactive: 0.066
13 | PSMC3 (UniProt P17980) | inactive: 0.013 | inactive: 0.02 | inactive: -0.024 | inactive: -0.051 | inactive: 0.034 | inactive: -0.063 | inactive: -0.055 | inactive: 0.002 | inactive: -0.034 | inactive: -0.059 | inactive: 0.032 | inactive: 0.179 | inactive: -0.021 | active: -0.319 |  | inactive: 0.079 | inactive: -0.031 |  | inactive: 0.021 | inactive: 0.018
14 | PSMD7 (UniProt P51665) | inactive: -0.011 | inactive: -0.005 | inactive: -0.047 | inactive: -0.038 | inactive: 0.145 | inactive: -0.073 | inactive: -0.029 | inactive: 0.045 | inactive: -0.03 | inactive: -0.05 | inactive: 0.027 | inactive: 0.205 | inactive: 0 | inactive: -0.236 |  | inactive: 0.027 | inactive: -0.019 |  | inactive: 0.083 | inactive: 0.06
15 | PSMC6 (UniProt P62333) | inactive: 0 | inactive: 0.022 | inactive: -0.034 | inactive: -0.043 | inactive: 0.034 | inactive: -0.067 | inactive: -0.069 | inactive: 0.01 | inactive: -0.081 | inactive: -0.055 | inactive: 0.033 | inactive: 0.178 | inactive: -0.021 | active: -0.312 |  | inactive: 0.029 | inactive: -0.03 |  | inactive: 0.009 | inactive: 0.018
16 | PTRH2 (UniProt Q9Y3E5) | inactive: 0.009 | inactive: -0.007 | inactive: 0.032 | inactive: 0.144 | inactive: -0.078 | inactive: -0.05 | inactive: -0.009 | inactive: -0.025 | inactive: -0.064 | inactive: -0.022 | inactive: -0.004 | inactive: -0.09 | inactive: 0.013 | inactive: -0.018 |  | inactive: -0.067 | inactive: 0.057 |  | inactive: -0.042 | inactive: 0.018

Single entries from above:
PTRH2 (UniProt Q9Y3E5) – log2 fold change [6]: inactive: -0.025
PSMB2 (UniProt P49721) – log2 fold change [6]: inactive: -0.021

— the supplement of paper PMC10849652
